# Measured values reported in PubChem BioAssay AID602313 (National Center for Advancing Translational Sciences (NCATS), 2012).
# Among all 390,000 compounds or so, about 760 (0.19%) were called active. The inconclusive results got no clear call from the source; some entries with a clear call stand among them for comparison. Calls follow the shape of the dose curve; as a rule, active = well fitted inhibition curve with a large enough effect; inconclusive = small, poorly fitted or top-dose-only effect; inactive = flat fitted curve, though single readings scatter. Potencies of inconclusive entries are doubtful fits and often do not repeat.
# Assay: qHTS for Inhibitors of Vif-A3F Interactions: qHTS; also: nearly all actives have a fitted effect of over 65% in size; as to activity, negative = active: % of control where 0% means no effect
# Conditions: HeLa A3F-eYFP + Vif (tagged APOBEC3F with the HIV-1 protein that degrades it), YFP fluorescence increase; series mostly up to 46.1 µM; activity, negative = active: at the top concentration
# Excerpt: The recent discovery and characterization of host restriction factors, which provide a potent defense to invading retroviruses, has provided new targets for antiviral drug development. APOBEC3G (A3G) and APOBEC3F (A3F) are potent cytidine deaminases that block HIV-1 replication; HIV-1 expresses the Vif protein, which counteracts A3G and A3F by binding to them and inducing their proteasomal degradation. The Vif-A3G and Vif-A3F interactions provide two potential targets for development of small molecules which can interfere with the ability of Vif to degrade A3G or A3F. […] To identify inhibitors that can interfere with Vif mediated degradation of A3G and A3F, we have developed Hela cell lines that stably express A3G or A3F tagged with eYFP at the C-terminal end (A3G-eYFP or A3F-eYFP, respectively) and Vif. In the absence of an inhibitor, Vif induces degradation of A3G-eYFP and A3F-eYFP, and the cells are not fluorescent. In the presence of an inhibitor, it is expected that Vif will be unable to degrade A3G-eYFP and/or A3F-eYFP, resulting in an increase in yellow fluorescence. In this assays Vif A3F was screened against the Molecular Library Small Molecule Repository (MLSMR). NIH Chemical Genomics Center [NCGC] NIH Molecular Libraries Probe Centers Network [MLPCN] MLPCN Grant: MH093245 Assay Submitter (PI): Vinay Pathak, National Cancer Institute
# 5 uL of 700 cells/well of A3F-YFP cells are dispensed into black, clear bottom plates. The plates are incubated overnight at 37 deg C. 23 nL of compounds are added by pintool. The plates are incubated overnight at 37 deg C and then read on the TTP Acumen (Ex 488/ Em 500-530).
# Potency is read from the fitted curve at half-maximal effect.
SMILES,Potency,"activity, negative = active"
COc1ccc(C2=C(C(C)=O)Sc3nnc(-c4ccc(Cl)cc4)n3N2C(C)=O)cc1OC,"inconclusive: 11.2 µM [inhibitor, partial curve, poor fit]",
COc1ccc(NC(=O)Cn2c(=O)c3cccn3c3ccccc32)cc1Cl,"inconclusive: 3.98 µM [inhibitor, full curve, poor fit]",
CC(=O)C1=NOC(CNc2ncc(C(F)(F)F)cc2Cl)C1 (centres undefined),"inconclusive: 35.5 µM [inhibitor, single point]",
N#Cc1cc2c(nc1SCC(=O)Nc1ccc(OC(F)(F)F)cc1)C1CCN2CC1,,inactive: -9.22%
COc1cccc(C(=O)C2CCCN(Cc3cccc(C)n3)C2)c1 (centres undefined),"inconclusive: 28.2 µM [inhibitor, single point]",
C=CCn1c(O)c(C(C)=Nc2ccc(N(CC)CC)cc2)c(=O)[nH]c1=O,"inconclusive: 22.4 µM [inhibitor, single point]",
COC(=O)[C@H]1[C@H]2C[C@@H]3c4[nH]c5cc(OC)ccc5c4CCN3C[C@H]2C[C@@H](OC(=O)/C=C/c2cc(OC)c(OC)c(OC)c2)[C@@H]1OC,"inconclusive: 3.16 µM [inhibitor, single point]",
O=c1c2ccccc2nc(/C=C/c2ccc(O)cc2)n1-c1ccc(O)cc1,"inconclusive: 35.5 µM [inhibitor, single point]",
CCOC(=O)c1cccc(-[n+]2c(-c3ccccc3)cc(-c3ccccc3)cc2-c2ccccc2)c1,,inactive: 2.75%
COc1cccc(-n2c(O)c(C=NCCN3CCOCC3)c(=O)[nH]c2=O)c1,,inactive: 0.479%
O=S1(=O)CCN(CCc2c[nH]c3ccccc23)CC1,"inconclusive: 2.82 µM [inhibitor, single point]",
CC(C)OC(=O)c1cc(C(=O)c2cc(Cl)ccc2O)coc1=N,"inconclusive: 17.8 µM [inhibitor, partial curve, poor fit]",
COC1C(OC(=O)c2ccc(C)[nH]2)C(O)C(Oc2ccc3c(O)c(NC(=O)c4ccc(O)c(CC=C(C)C)c4)c(=O)oc3c2Cl)OC1(C)C (centres undefined),"inconclusive: 28.2 µM [inhibitor, single point]",
O=C(CSc1ccccn1)Nc1cccc2ccccc12,"inconclusive: 35.5 µM [inhibitor, partial curve, poor fit]",
O=c1c2ccccc2nc(/C=C/c2ccc(O)cc2)n1-c1cccc(O)c1,"inconclusive: 25.1 µM [inhibitor, single point]",
CC(C)N(Cc1ccco1)/N=C/c1c(O)n(Cc2ccccc2)c(=O)[nH]c1=O,,inactive: 4.56%
Fc1ccccc1CCNCc1ccccc1,"inconclusive: 35.5 µM [inhibitor, single point]",
O=c1c(C=Nc2cccnc2Cl)c(O)n(CCCCl)c(=O)n1C1CCCCC1,"inconclusive: 17.8 µM [inhibitor, partial curve, poor fit]",
CCOC(=O)C1CCCN(c2ccc([N+](=O)[O-])c3nonc23)C1 (centres undefined),"inconclusive: 3.16 µM [inhibitor, partial curve, poor fit]",
Nc1c(C(=O)Nc2cccc(F)c2)sc2nc(-c3cccs3)ccc12,"inconclusive: 7.08 µM [inhibitor, partial curve, poor fit]",

SMILES,Potency,"activity, negative = active"
CCOc1ccc(CCNC(=O)c2ccc(-n3c(C)cc4c3CCCC4)cc2)cc1OCC,"inconclusive: 35.5 µM [inhibitor, single point]",
CCN(CC)c1ccc(N=Cc2c(O)n(Cc3ccco3)c(=O)[nH]c2=O)cc1,"inconclusive: 28.2 µM [inhibitor, single point]",
CCOC(=O)c1cnc(SCc2ccc(Cl)c(Cl)c2)nc1N1CC1,"inconclusive: 35.5 µM [inhibitor, single point]",
Brc1ccccc1,,inactive: -3.3%
COc1cc(/C=C/C(=O)c2c(O)n(CCc3ccccc3)c(=O)[nH]c2=O)ccc1O,"inconclusive: 22.4 µM [inhibitor, single point]",
c1coc(CN2Cc3ccccc3-n3nncc3C2)c1,,inactive: -12.4%
CCN(CC)c1ccc(N=Cc2c(O)n(CCc3ccc(OC)c(OC)c3)c(=O)[nH]c2=O)cc1,"inconclusive: 35.5 µM [inhibitor, single point]",
COc1ccc(CCn2c(O)c(C=NCc3ccc4c(c3)OCO4)c(=O)[nH]c2=O)cc1OC,"inconclusive: 15.8 µM [inhibitor, single point]",
COc1ccc(Cn2c(O)c(/C=C3/C=CC=N3)c(=O)[nH]c2=O)cc1,"inconclusive: 22.4 µM [inhibitor, partial curve, poor fit]",
C[C@]12CC[C@@H]3c4ccc(O)c(O)c4CC[C@H]3[C@@H]1CC[C@@H]2O,"inconclusive: 28.2 µM [inhibitor, single point]",
Cc1ccc(/C=C2/Sc3ccc(C(=O)N4CCC5(CC4)OCCO5)cc3NC2=O)cc1,"inconclusive: 35.5 µM [inhibitor, single point]",
O=C1NC(=O)N(Cc2ccco2)C(=O)/C1=C/C=C/c1ccco1,"inconclusive: 25.1 µM [inhibitor, partial curve, poor fit]",
CCS(=O)(=O)N1N=C(c2cccc(NS(C)(=O)=O)c2)CC1c1ccccc1 (centres undefined),active: 10 µM,
Cc1ncc(CN2CCCC(C(=O)c3sccc3C)C2)s1 (centres undefined),"inconclusive: 35.5 µM [inhibitor, single point]",
COc1ccc(C(=O)O)cc1OC,,inactive: 2.18%
CC(C)c1ccc(N2C(=O)NC(=O)/C(=C\c3cnc(-c4ccccc4)nc3)C2=O)cc1,"inconclusive: 12.6 µM [inhibitor, partial curve, poor fit]",
N#Cc1ncc(N=Cc2ccc(N(CCCl)CCCl)cc2)s1,"inconclusive: 35.5 µM [inhibitor, single point]",
c1ccc(-c2ccc(-c3n(-c4ccccn4)c4ccccc4[n+]3-c3ccccn3)cc2)cc1,"inconclusive: 22.4 µM [inhibitor, single point]",
O=C1NC(=O)N(Cc2ccco2)C(=O)/C1=C\c1cccn1CCOc1ccc(Cl)cc1,"inconclusive: 10 µM [inhibitor, partial curve, poor fit]",

# Looked up above.
# Potency with O=C1NC(=O)N(Cc2ccco2)C(=O)/C1=C/C=C/c1ccco1 is entered as inconclusive: 25.1 µM [inhibitor, partial curve, poor fit]
# Potency with CCN(CC)c1ccc(N=Cc2c(O)n(CCc3ccc(OC)c(OC)c3)c(=O)[nH]c2=O)cc1 is entered as inconclusive: 35.5 µM [inhibitor, single point]
